In paper PMC4985284, “Monochromatic multicomponent fluorescence sedimentation velocity for the study of high-affinity protein interactions” (eLife, 2016):
Results are given in words; binding and its absence hold for the method and conditions named.

By UniProt entry, the sequences of proteins in these tests, tags left out. Residues count along the entry.
UniProt P19492, residues 23-408: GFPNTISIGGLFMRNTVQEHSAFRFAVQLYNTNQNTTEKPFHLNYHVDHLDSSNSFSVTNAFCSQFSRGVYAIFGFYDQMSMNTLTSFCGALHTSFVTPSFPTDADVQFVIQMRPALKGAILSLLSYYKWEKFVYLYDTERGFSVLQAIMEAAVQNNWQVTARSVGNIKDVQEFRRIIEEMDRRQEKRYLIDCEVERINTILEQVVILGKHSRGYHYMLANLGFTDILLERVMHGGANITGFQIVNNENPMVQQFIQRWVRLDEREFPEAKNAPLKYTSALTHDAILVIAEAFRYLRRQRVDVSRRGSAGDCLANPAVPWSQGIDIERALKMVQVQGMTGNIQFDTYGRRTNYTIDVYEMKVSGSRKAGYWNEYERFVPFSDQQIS

Target: fusion protein of GluA3-ATD and rsEGFP2 (rsEGFP2-GluA3) (UniProt P19492)
Test: AUC; FDS-SV in blinking configuration, rsEGFP2-GluA3 at concentrations between 1 nM and 30 nM, 50,000 rpm, 20°C; 0.1 mg/ml unlabeled BSA added; both purified

binding: no binding (tested: up to 30 nM)
Substance: fusion protein of GluA3-ATD and rsEGFP2 (rsEGFP2-GluA3) (from UniProt P19492 23-408) (domain or fragment)
